Results reported in PubChem BioAssay AID1508600 (Functional Genomics Laboratory (NCATS/FGL), 2020).
In all, about 53,000 sequences went through this assay and about 3,700 (7%) were called active.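 Rule for the calls: active = gene knockdowns whose robust z-score for IL-1 alpha signal is at least 2 or at most -2, so actives lie on both sides; inactive = the rest.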 Some of the results follow.

Experiment: Components of the Cytosolic LPS Sensing Pathway: Gene Identification via Genome-wide siRNA Screen;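 note: robust z of the log signal after scaling to non-targeting control siRNA wells of the plate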
Conditions: RAW264.7 macrophages, IL-1a HTRF, actives lie on both sides, screened at 100 nM (by protocol), cells primed 5 h with Pam3CSK4 first
Summary of the method: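 Cells (RAW264.7, 1×10^4 per well) were transfected with siRNA at 100 nM and cultured 48h at 37 degrees C. Pam3CSK4 was added for 5 hours; LipidA transfection followed for 24 hour. IL-1a was then measured by HTRF.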

z-score, active:
GGAAAAGUACACAAAGACCTT against Nkx2-1 2.16, GCUUACAUUAAAGGAUAUGTT against Rab5c 2.17, CGAACGUGAUGAGUUAUGGTT against Vmn1r83 -2.67

z-score, inactive:
GGAAUUUUAGCGGAUGAUATT against Hltf -0.369, GGUCGAAUGAAAAUCGCCATT against Arhgap18 -1.56, GCACGUGGGCUAUUCCUACTT against Gria1 -0.158, GGACCUCAGAAUUUAUACUTT against Atf5 0.653, CCAAUCAUUGAAGAUAGAGTT against Olfr811 -0.176, CCUCUAUCUAACCUUUUCUTT against 1810037I17Rik -0.449, GGAAGAUCUAUACUGUGGUTT against Wfdc18 -0.65, GCUCAGUACCGCACAACCATT against Dus3l -0.827, GGAAAAAAUCUGCAUCCGATT against Neu1 -0.415, GGUAUGAUGCCUAUUUAUUTT against Cln8 -0.278, GGAGUAUUGUUUUAAACCCTT against Spata16 0.406, CCCAAAACCCUGCUAUUCATT against Synj2bp 0.41, CGACUACCAGAGUCAUUCGTT against Lyzl6 -1.13, GGCCAAAGGACUGAUCAUCTT against Hectd4 0.104, GGACACAAGAGGCCAAUAATT against Ccdc63 -0.18, CCAGUGAACUUUAUGGACUTT against Rexo4 -0.581, GGAAGUCUGUCCAAAGCAUTT against Olfr190 0.248, GGGAGAAGAAGAUACACCATT against Usp47 -0.513, GGCCUAUUAUACAGUGUAUTT against Anxa3 -0.398, GGGAGACAAACUGAUCUCUTT against Olfr324 -1.95, CUGGGUUACUUCACUAAGGTT against Psg26 0.885, GGCCAGUACUUUGCUAAACTT against Hnrnpa1 1.28, CCAGUAGCAGAUCAACUCATT against Mxd1 -1.94, GGGCUUUUGGCUUCAUGACTT against Pcbd1 -1.9, GCCCAUAAACUGAUGGUGGTT against Tbc1d24 -0.45, GGACACCUCGAGAUUCUCUTT against Actl11 -0.186, GCUUUUAACAUCGAGUAAUTT against Top2b -0.627, GGCUUUUGAGCUGAUCUUGTT against Stmn2 -1.44, GGUCAUCAUGUCUCAUCAGTT against Olfr983 0.492, GCCACGAACAUGAUGUACATT against Slco3a1 0.229, GGGAUUUCACUUCUUAUCATT against Olfr781 -1.21, GCCCGGUUUGAAGAACAUATT against Ndufb9 0.702, GGGCACAAGAUCUAUAUAUTT against Anpep 0.517, GGCUGAAGAGAUUGUCAAUTT against Aars -0.392, GCUAUGAAACAUGCCGGAGTT against Mrps21 -0.0108, GGUAAUCUCCAAAAAACCATT against Lilra6 -0.863, GGACUACCGAGGUUUAACCTT against Snx22 -0.0645, GCGCAUCAUCGAUUCUGCCTT against Sfn -1.21, GCUCGUUGACAAGAAGAGUTT against Bpifb5 1.02, GGCUUUAGCAGAUGAGCGATT against Sptbn4 -0.0568, GGUGUAUUGCAUCAUUUCUTT against Tmbim1 0.981, GGCCAAAUUGCCAUCUGUUTT against Platr26 -1.35, GGAAAUCAAUGCAUUGUCCTT against Fbn2 -0.499, GGGAAGACACUGGCUUCAGTT against Lepr 0.957, GGCAGCUAGAAAUUCACUCTT against Sntb1 -0.988, GCCAUAUUUACUAAGCAGATT against Plcl2 0.123, CCUCCACCUAGAAUGUGACTT against Ghrhr -0.582, CGGAAUGUACACCUACUUUTT against Maneal 0.154, GGCAAAUUUAUUUCAGGAATT against Naa16 -0.235, GCCCUAUUCCCAACUAUUCTT against Nefl -0.481, GCAAAAUAACUGGGACUUGTT against Faf1 1.41, GGUGAACUCUUCACAUUUGTT against Fcer1a 1.55, GGAAUGUUUUCAUGACUGUTT against Ttc1 0.778, GGUCAUGGAUCAGAAAGAATT against Hnrnpd 0.297, CCCACCCAUCUAAUUUUUGTT against Gm266 0.152, GGCCGUAUAACAGGACUUUTT against Cltb -0.448, GGUCAUCUAUCGUGUGCUGTT against Lamb2 -0.619, CGACUUGUAUCGUAUGGCUTT against Grm7 -0.182, CCCAGGACUCAUGAUUACATT against Tas2r134 -0.646, GCACACCUUUAAUAGCUAATT against Gcm1 -0.791, CCUACACCCAAUUAAGAGUTT against F830005K03Rik -0.255, GGAUGUGAUGACUCAUUUUTT against Zbtb8os 0.976, GGUCAUUGUUUAUGUCACATT against Sorcs3 -0.496, GCAGAUUAGAAGCUAGUAUTT against Rab27b 0.677, GGAGGUUUUCAUGGUUAUCTT against Nrgn 0.0293
